Source: PubChem BioAssay AID1508597 (Cure First, 2020)
Here is an unselected part of about 2,100 deposited reagents. 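Calls flag viability under 80% in either arm, not effects specific to rucaparib; the reference for percent is not stated.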 Entries without a mark were called inactive. A reagent listed more than once was tested more than once; the source does not tell the runs apart. No sequences are given here. Not given: the 100% reference.

Purpose: 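Survival screen with siRNA in ovarian cancer cells derived from patients, with or without rucaparib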 (primary screen)
System: human ovarian carcinoma lines grown from tumours: OCI-P5x (papillary serous) and OCI-C5x (clear cell)
Reagents: siRNA pool against human genes, 1.25 pmol siRNA per well
Timing: 72 h or 96 h, depending on the cell culture
Treatment: rucaparib 20 µM (about IC30) or vehicle, present until read-out
Read-out: 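Luminescent ATP-based viability assay read 72 or 96 h after transfection, depending on culture, given as normalised percent viability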
Reading the numbers: viability, normalised: higher = more viable cells remaining
Rule for the call: 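a well counts as a hit if its normalised viability is under 80 percent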
Meaning of the calls: active = viability under 80%; inactive = viability 80% or more

MASTL, rucaparib or vehicle Rucaparib, cell line OCI-C5x (clear cell), technical replicate 1
- viability, normalised (%): 60.5 (active)

MASTL, rucaparib or vehicle Rucaparib, cell line OCI-C5x (clear cell), technical replicate 2
- viability, normalised (%): 77.6 (active)

MASTL, rucaparib or vehicle Rucaparib, cell line OCI-C5x (clear cell), technical replicate 3
- viability, normalised (%): 64.4 (active)

MASTL, rucaparib or vehicle Rucaparib, cell line OCI-P5x (serous), technical replicate 1
- viability, normalised (%): 91

MASTL, rucaparib or vehicle Rucaparib, cell line OCI-P5x (serous), technical replicate 2
- viability, normalised (%): 85

MASTL, rucaparib or vehicle Rucaparib, cell line OCI-P5x (serous), technical replicate 3
- viability, normalised (%): 48.5 (active)

MASTL, rucaparib or vehicle Vehicle, cell line OCI-C5x (clear cell), technical replicate 1
- viability, normalised (%): 55.5 (active)

MASTL, rucaparib or vehicle Vehicle, cell line OCI-C5x (clear cell), technical replicate 2
- viability, normalised (%): 66.9 (active)

MASTL, rucaparib or vehicle Vehicle, cell line OCI-C5x (clear cell), technical replicate 3
- viability, normalised (%): 44.9 (active)

MASTL, rucaparib or vehicle Vehicle, cell line OCI-P5x (serous), technical replicate 1
- viability, normalised (%): 59.4 (active)

MASTL, rucaparib or vehicle Vehicle, cell line OCI-P5x (serous), technical replicate 2
- viability, normalised (%): 63.7 (active)

MASTL, rucaparib or vehicle Vehicle, cell line OCI-P5x (serous), technical replicate 3
- viability, normalised (%): 63 (active)

Next part (5 carried over from the part before).
MASTL, rucaparib or vehicle Vehicle, cell line OCI-C5x (clear cell), technical replicate 2
- viability, normalised (%): 66.9 (active)

MASTL, rucaparib or vehicle Vehicle, cell line OCI-C5x (clear cell), technical replicate 3
- viability, normalised (%): 44.9 (active)

MASTL, rucaparib or vehicle Vehicle, cell line OCI-P5x (serous), technical replicate 1
- viability, normalised (%): 59.4 (active)

MASTL, rucaparib or vehicle Vehicle, cell line OCI-P5x (serous), technical replicate 2
- viability, normalised (%): 63.7 (active)

MASTL, rucaparib or vehicle Vehicle, cell line OCI-P5x (serous), technical replicate 3
- viability, normalised (%): 63 (active)

HCK, rucaparib or vehicle Rucaparib, cell line OCI-C5x (clear cell), technical replicate 1
- viability, normalised (%): 54.5 (active)

HCK, rucaparib or vehicle Rucaparib, cell line OCI-C5x (clear cell), technical replicate 1
- viability, normalised (%): 46.3 (active)

HCK, rucaparib or vehicle Rucaparib, cell line OCI-C5x (clear cell), technical replicate 2
- viability, normalised (%): 60.4 (active)

HCK, rucaparib or vehicle Rucaparib, cell line OCI-C5x (clear cell), technical replicate 2
- viability, normalised (%): 50.2 (active)

HCK, rucaparib or vehicle Rucaparib, cell line OCI-C5x (clear cell), technical replicate 3
- viability, normalised (%): 40 (active)

HCK, rucaparib or vehicle Rucaparib, cell line OCI-C5x (clear cell), technical replicate 3
- viability, normalised (%): 55.8 (active)

HCK, rucaparib or vehicle Rucaparib, cell line OCI-P5x (serous), technical replicate 1
- viability, normalised (%): 51.1 (active)

HCK, rucaparib or vehicle Rucaparib, cell line OCI-P5x (serous), technical replicate 1
- viability, normalised (%): 103

HCK, rucaparib or vehicle Rucaparib, cell line OCI-P5x (serous), technical replicate 2
- viability, normalised (%): 96.5

HCK, rucaparib or vehicle Rucaparib, cell line OCI-P5x (serous), technical replicate 2
- viability, normalised (%): 57.7 (active)

HCK, rucaparib or vehicle Rucaparib, cell line OCI-P5x (serous), technical replicate 3
- viability, normalised (%): 56.3 (active)

HCK, rucaparib or vehicle Rucaparib, cell line OCI-P5x (serous), technical replicate 3
- viability, normalised (%): 107

HCK, rucaparib or vehicle Vehicle, cell line OCI-C5x (clear cell), technical replicate 1
- viability, normalised (%): 64 (active)

HCK, rucaparib or vehicle Vehicle, cell line OCI-C5x (clear cell), technical replicate 1
- viability, normalised (%): 75.7 (active)

HCK, rucaparib or vehicle Vehicle, cell line OCI-C5x (clear cell), technical replicate 2
- viability, normalised (%): 53.3 (active)

HCK, rucaparib or vehicle Vehicle, cell line OCI-C5x (clear cell), technical replicate 2
- viability, normalised (%): 71 (active)

HCK, rucaparib or vehicle Vehicle, cell line OCI-C5x (clear cell), technical replicate 3
- viability, normalised (%): 61.7 (active)

HCK, rucaparib or vehicle Vehicle, cell line OCI-C5x (clear cell), technical replicate 3
- viability, normalised (%): 63.1 (active)

HCK, rucaparib or vehicle Vehicle, cell line OCI-P5x (serous), technical replicate 1
- viability, normalised (%): 95.8

HCK, rucaparib or vehicle Vehicle, cell line OCI-P5x (serous), technical replicate 1
- viability, normalised (%): 74.6 (active)

HCK, rucaparib or vehicle Vehicle, cell line OCI-P5x (serous), technical replicate 2
- viability, normalised (%): 116

HCK, rucaparib or vehicle Vehicle, cell line OCI-P5x (serous), technical replicate 2
- viability, normalised (%): 62.4 (active)

HCK, rucaparib or vehicle Vehicle, cell line OCI-P5x (serous), technical replicate 3
- viability, normalised (%): 45.2 (active)

HCK, rucaparib or vehicle Vehicle, cell line OCI-P5x (serous), technical replicate 3
- viability, normalised (%): 113
